From article PMC4046817

Chains of the proteins cited; added tags and fusions are not shown. Lines headed by an entry give the natural chain unless they say otherwise; changes in a name come on top.
UniProt Q7LX67: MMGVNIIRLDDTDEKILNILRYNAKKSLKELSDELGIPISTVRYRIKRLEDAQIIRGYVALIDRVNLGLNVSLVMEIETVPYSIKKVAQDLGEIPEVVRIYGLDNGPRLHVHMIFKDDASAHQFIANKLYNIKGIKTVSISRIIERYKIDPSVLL

Target: T1, LysM, lysine-responsive Lrp-like transcription factor from Sulfolobus solfataricus (Sulfolobus solfataricus) (UniProt Q980W9)
T1 sequence: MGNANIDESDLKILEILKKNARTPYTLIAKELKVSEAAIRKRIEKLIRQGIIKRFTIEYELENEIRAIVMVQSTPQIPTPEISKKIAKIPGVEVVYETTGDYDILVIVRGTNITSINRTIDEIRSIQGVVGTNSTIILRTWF
Experiment: native gel or EMSA; EMSA with a 32P-labelled 348-bp DNA probe encompassing the Ssot28 target; 40 nM LysM, 320 nM Ss-LrpB, supershift with 500 nM Ss-LrpB-specific nanobody; LrpB binding buffer; LysM is bound to the DNA, Ss-LrpB does not bind this DNA by itself; both purified

“Ss-LrpB, Lrp-like transcription factor from Sulfolobus solfataricus (from UniProt Q7LX67)” was tested, and the binding was “binds”.

These are yes or no findings as the source states them, for the method shown. Binding calls can cover weak binding; strength is not graded here.
